Results are given in words; binding and its absence hold for the method and conditions named.

The assay deals with T1, ABI5 (Arabidopsis thaliana) (UniProt Q9SJN0).
T1 sequence: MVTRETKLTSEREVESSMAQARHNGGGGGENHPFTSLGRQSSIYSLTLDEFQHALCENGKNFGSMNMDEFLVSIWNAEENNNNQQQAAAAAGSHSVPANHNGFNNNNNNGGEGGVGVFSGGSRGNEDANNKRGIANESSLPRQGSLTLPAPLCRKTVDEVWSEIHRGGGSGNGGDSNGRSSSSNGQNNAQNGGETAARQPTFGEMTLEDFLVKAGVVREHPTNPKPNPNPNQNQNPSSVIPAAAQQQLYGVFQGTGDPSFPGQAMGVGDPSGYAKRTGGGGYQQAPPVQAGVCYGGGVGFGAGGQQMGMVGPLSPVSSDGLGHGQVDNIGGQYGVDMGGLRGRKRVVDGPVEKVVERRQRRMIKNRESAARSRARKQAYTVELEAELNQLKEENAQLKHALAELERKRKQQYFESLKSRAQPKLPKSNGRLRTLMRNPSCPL
Put plainly: two-hybrid; yeast two-hybrid; X-gal plates and liquid assay (Clontech Yeast Protocols Handbook); BBX21 domains fused to GAL4-AD.

Consider “N-terminal domain of BBX21 (the B-box domain) (Arabidopsis thaliana) (domain or fragment)”, for which the binding entry is reported as “no binding”.
With “C-terminal domain of BBX21 (Arabidopsis thaliana) (domain or fragment)” the entry was “no binding”.

Source of the values: paper PMC3937224, “Convergence of Light and ABA Signaling on the ABI5 Promoter” (PLoS Genetics, 2014).
